Experimental data published in patent US20240156789A1, “ORAL FELINE FEED AND METHODS FOR CONTROLLING FLEA INFESTATIONS IN A FELINE” (priority 2021, published 2024).
Some of these results come from one statement about several compounds together.

Tested on: Ctenocephalides felis
Assay: Example 3: efficacy of afoxolaner and fluralaner liquid formulations given by mouth to cats against fleas
Assay type: in vivo
Conditions: liquid formulation, by day 7

## Cc1cc(C2=NOC(c3cc(Cl)cc(Cl)c3)(C(F)(F)F)C2)ccc1C(=O)NCC(=O)NCC(F)(F)F (centres unmarked) [Fluralaner, 4-[5-(3,5-dichlorophenyl)-5-(trifluoromethyl)-4,5-dihydro-1,2-oxazol-3-yl]-2-methyl-N-{2-oxo-2-[(2,2,2-trifluoroethyl)amino]ethyl}benzamide]
Treatment group 4, 0.125 mg/kg daily oral (Days 0-29)
  efficacy: greater than 95%
Treatment group 5, 0.375 mg/kg daily oral (Days 0-29)
  efficacy: greater than 95%
